Results are given in words; binding and its absence hold for the method and conditions named. Some entries that bind do so weakly or less than the wild type.
Target: T1, IgFLNa21 domain of filamin A (Gly2236-Ser2329) (UniProt P21333 2236-2329)
T1 construct: filamin A, Ig-like repeat 21 (IgFLNa21), residues Gly2236-Ser2329; The same range also stands as the C-terminal part of the hybrid chain m5 (cloned in pET14b); the rows on the hybrid use m1 for this domain; also called IgFLNa21 filamin; wild-type IgFLNa21; source: E. coli rosetta, synthetic gene in pET24a, 15N/13C-labelled, purified (Ni-NTA, size-exclusion chromatography)
T1 sequence (looked up): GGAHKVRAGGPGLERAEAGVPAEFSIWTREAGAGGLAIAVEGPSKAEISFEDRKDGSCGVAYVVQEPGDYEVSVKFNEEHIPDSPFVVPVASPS
Assay: NMR titration; 15N-1H HSQC of IgFLNa21 (100 μM) with sequential additions of peptide at 1:0, 1:1, 1:2 and 1:3 ratios; 298 K; 25 mM sodium phosphate, 5 mM NaCl, 2 mM DTT, 10% D2O, pH 6.5; both purified

binding: binds weakly
B1: β2-CT MP peptide (membrane proximal fragment of integrin β2 CT, K724-D750) (peptide)
chain: KALIHLSDLREYRRFEKEKLKSQWNND
